Assay results published in patent US20250320401A1, “CORROSION INHIBITOR AND RELATED METHODS OF INHIBITING THE CORROSION OF METAL SURFACES” (Schlumberger Technology Corporation, priority 2024, published 2025).

Assay: Corrosion rate by weight loss analysis of steel coupons in inhibited hydrochloric acid
Settings: HS80 low carbon steel, 80° C., one hour exposure, inhibitor 3.57 mmol; for CR, mm/year in 4M HCl: 100 ml 4M HCl; for CR, mm/year in 25% HCl: 100 ml 25% HCl
Text: The corrosion rates were studied by weight loss analysis. The low carbon steel HS80 tubing were cut into coupons of 29±3 cm^2 surface area using a water cooled band saw to minimize any changes in the properties of the metal that may result from heating. After cutting, the coupons were stamped for identification, glass bead blasted and cleaned in acetone to remove any residue from the machining process. The coupons were then dried, placed in plastic bags and stored in airtight jars to prevent contact with humidity or airborne contaminants. The initial surface area of each test coupon was determined by accurate (to four decimal places) measurement of its geometric dimensions.
Throughout the exposure period, isothermal conditions are maintained (for the present study, the temperature was maintained at 80° C.) and the inhibited acid is continuously stirred using a magnetic stirrer bar. Since the tests were designed to simulate oil well acid stimulation, no effort was made to remove dissolved oxygen from the acid. However, an argon blanket was used to stop any additional intrusion of oxygen during the one hour exposure period. Following each test, the coupons were rinsed in acetone and scrubbed with soap and water to remove residual inhibitor and corrosion deposits. A final rinse in acetone and a brief drying period at ambient temperature was completed prior to re-weighing and calculation of weight loss and corrosion rate. The coupons were examined visually for localized corrosion, observed as pits or edge attack.

SMILES	CR, mm/year in 4M HCl	CR, mm/year in 25% HCl
CCOC(CCO)OCC [3,3-diethoxy-1-propanol]	56 ± 3 mm/year	53 ± 3 mm/year
O=CCCO [3-HPA, 3-Hydroxypropionaldehyde]	79 ± 4 mm/year	69 ± 4 mm/year
C=CC=O [Acrolein, reference compound]	37 ± 2 mm/year	52 ± 3 mm/year
C#CCO [Propargyl alcohol, reference compound]	13 ± 1 mm/year	35 ± 2 mm/year
